Results are given in words; binding and its absence hold for the method and conditions named. Binding seen in cells or lysates may run through a third protein. Some entries that bind do so weakly or less than the wild type.

Sequences of proteins named here, by UniProt entry; tags and fusion partners are left off.
UniProt Q61188: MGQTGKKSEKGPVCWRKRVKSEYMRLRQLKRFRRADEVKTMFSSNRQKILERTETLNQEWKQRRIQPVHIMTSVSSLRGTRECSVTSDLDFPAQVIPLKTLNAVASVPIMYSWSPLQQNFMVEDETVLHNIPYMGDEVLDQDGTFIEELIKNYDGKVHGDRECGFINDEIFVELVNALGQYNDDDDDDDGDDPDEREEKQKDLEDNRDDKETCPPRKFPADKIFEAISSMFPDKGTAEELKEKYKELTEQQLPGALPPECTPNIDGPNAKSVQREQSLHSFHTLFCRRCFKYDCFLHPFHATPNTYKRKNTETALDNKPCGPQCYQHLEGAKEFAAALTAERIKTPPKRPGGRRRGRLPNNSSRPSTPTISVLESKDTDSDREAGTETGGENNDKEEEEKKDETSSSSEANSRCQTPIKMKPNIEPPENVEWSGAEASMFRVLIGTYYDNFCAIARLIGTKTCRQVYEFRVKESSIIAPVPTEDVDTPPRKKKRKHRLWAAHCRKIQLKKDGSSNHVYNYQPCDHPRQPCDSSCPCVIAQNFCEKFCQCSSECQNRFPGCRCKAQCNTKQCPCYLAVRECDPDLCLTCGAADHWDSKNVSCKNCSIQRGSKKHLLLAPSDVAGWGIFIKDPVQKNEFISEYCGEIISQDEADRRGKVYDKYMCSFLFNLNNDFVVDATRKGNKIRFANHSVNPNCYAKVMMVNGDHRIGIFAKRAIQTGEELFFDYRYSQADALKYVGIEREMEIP
UniProt Q9Z1E3: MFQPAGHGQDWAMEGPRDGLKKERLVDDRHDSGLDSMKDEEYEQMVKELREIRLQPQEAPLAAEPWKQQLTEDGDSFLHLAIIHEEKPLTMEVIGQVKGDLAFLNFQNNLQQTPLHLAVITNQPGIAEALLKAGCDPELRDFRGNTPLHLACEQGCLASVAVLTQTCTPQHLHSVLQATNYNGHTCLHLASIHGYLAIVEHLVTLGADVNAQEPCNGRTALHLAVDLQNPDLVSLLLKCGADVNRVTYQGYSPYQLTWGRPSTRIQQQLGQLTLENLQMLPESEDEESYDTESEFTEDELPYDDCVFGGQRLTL

For this assay, the target named is EZH2 (mouse (endogenous in E11.5 AGM sections)) (UniProt Q61188). The assay is described as follows: proximity ligation; Duolink PLA on 12 um sections of E11.5 mouse AGM fixed in 2% paraformaldehyde, permeabilised in methanol; primary antibodies to IκBα and EZH2 1:200 overnight at 4 degrees.

On to “IκBα (Nfkbia, the inhibitor of NF-κB) (from UniProt Q9Z1E3 1-314)”, for which the binding result is listed as “binds”.

The values are drawn from paper PMC11144194.
